Results reported in PMC7923384.
These are yes or no findings as the source states them, for the method shown. Binding seen in cells or lysates may run through a third protein. Some entries that bind do so weakly or less than the wild type. For some assays here: Tags and fused reporters may be left off the sequences shown. One block for each binder: values may come before it.

Legend:
[1] = biological target: ZMYND8 (endogenous) (human (endogenous in 786-O and A498)) (UniProt Q9ULU4); test: co-IP; endogenous proteins from 786-O and A498 cell lysates, Western blot; also with lambda protein phosphatase on the lysate, sgZMYND8, sgCDK1, RO-3306 (10 uM, 24 h) or roscovitine
[2] = biological target: T1, Flag-ZMYND8 (full length) (UniProt Q9ULU4); test: co-IP; tagged proteins (Flag-ZMYND8 and its truncation mutants, Myc-EZH2 WT or mutants) expressed by transfection in 293T cells, some with V5-CDK1 co-expressed; immunoprecipitation from lysate, Western blot; both orientations done
T1 sequence: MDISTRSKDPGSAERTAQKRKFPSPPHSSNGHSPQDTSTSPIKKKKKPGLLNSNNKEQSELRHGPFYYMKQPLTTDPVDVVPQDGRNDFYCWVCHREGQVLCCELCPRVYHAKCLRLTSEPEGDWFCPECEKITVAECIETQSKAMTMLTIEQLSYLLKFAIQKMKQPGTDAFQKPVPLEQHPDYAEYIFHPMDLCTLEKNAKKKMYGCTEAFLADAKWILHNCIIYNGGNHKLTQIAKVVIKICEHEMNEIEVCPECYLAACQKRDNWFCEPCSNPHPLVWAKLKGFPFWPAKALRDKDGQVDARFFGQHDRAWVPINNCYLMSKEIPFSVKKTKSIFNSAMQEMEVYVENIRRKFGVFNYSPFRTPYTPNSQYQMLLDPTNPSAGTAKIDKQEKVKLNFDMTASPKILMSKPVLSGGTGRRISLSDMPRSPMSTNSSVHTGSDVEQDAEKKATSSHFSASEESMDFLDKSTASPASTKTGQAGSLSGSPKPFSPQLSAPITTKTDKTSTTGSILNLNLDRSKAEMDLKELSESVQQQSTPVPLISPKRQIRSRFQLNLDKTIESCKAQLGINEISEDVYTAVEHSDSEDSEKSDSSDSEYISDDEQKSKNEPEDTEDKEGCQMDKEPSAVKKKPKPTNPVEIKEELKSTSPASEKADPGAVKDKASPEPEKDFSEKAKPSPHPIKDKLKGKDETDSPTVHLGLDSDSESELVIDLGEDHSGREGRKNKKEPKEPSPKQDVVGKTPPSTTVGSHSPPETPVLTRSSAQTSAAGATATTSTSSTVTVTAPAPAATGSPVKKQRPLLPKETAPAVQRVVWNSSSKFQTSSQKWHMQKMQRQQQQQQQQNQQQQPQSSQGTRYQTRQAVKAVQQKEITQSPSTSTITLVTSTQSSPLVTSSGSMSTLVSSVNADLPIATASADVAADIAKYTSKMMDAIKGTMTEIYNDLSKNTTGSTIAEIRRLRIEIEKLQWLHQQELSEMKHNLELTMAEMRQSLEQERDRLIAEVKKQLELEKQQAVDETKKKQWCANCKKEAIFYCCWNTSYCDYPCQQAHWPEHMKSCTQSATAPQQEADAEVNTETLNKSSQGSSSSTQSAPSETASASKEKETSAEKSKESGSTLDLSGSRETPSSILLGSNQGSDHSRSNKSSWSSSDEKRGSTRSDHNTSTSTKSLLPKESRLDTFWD

binding [1]: binds
B1: FOXM1 (endogenous) (protein, UniProt Q08050 1-763)
chain: MKTSPRRPLILKRRRLPLPVQNAPSETSEEEPKRSPAQQESNQAEASKEVAESNSCKFPAGIKIINHPTMPNTQVVAIPNNANIHSIITALTAKGKESGSSGPNKFILISCGGAPTQPPGLRPQTQTSYDAKRTEVTLETLGPKPAARDVNLPRPPGALCEQKRETCADGEAAGCTINNSLSNIQWLRKMSSDGLGSRSIKQEMEEKENCHLEQRQVKVEEPSRPSASWQNSVSERPPYSYMAMIQFAINSTERKRMTLKDIYTWIEDHFPYFKHIAKPGWKNSIRHNLSLHDMFVRETSANGKVSFWTIHPSANRYLTLDQVFKPLDPGSPQLPEHLESQQKRPNPELRRNMTIKTELPLGARRKMKPLLPRVSSYLVPIQFPVNQSLVLQPSVKVPLPLAASLMSSELARHSKRVRIAPKVLLAEEGIAPLSSAGPGKEEKLLFGEGFSPLLPVQTIKEEEIQPGEEMPHLARPIKVESPPLEEWPSPAPSFKEESSHSWEDSSQSPTPRPKKSYSGLRSPTRCVSEMLVIQHRERRERSRSRRKQHLLPPCVDEPELLFSEGPSTSRWAAELPFPADSSDPASQLSYSQEVGGPFKTPIKETLPISSTPSKSVLPRTPESWRLTPPAKVGGLDFSPVQTSQGASDPLPDPLGLMDLSTTPLQSAPPLESPQRLLSSEPLDLISVPFGNSSPSDIDVPKPGSPEPQVSGLAANRSLTEGLVLDTMNDSLSKILLDISFPGLDEDPLGPDNINWSQFIPELQ

binding [2]: binds
B2: FOXM1 in 293T cells (protein, UniProt Q08050 1-763)
chain: B1 chain
